Results are given in words; binding and its absence hold for the method and conditions named. Binding seen in cells or lysates may run through a third protein.
T1: sentrin/SUMO-specific protease 7 (SENP7), wild type (UniProt Q9BQF6)
T1 sequence: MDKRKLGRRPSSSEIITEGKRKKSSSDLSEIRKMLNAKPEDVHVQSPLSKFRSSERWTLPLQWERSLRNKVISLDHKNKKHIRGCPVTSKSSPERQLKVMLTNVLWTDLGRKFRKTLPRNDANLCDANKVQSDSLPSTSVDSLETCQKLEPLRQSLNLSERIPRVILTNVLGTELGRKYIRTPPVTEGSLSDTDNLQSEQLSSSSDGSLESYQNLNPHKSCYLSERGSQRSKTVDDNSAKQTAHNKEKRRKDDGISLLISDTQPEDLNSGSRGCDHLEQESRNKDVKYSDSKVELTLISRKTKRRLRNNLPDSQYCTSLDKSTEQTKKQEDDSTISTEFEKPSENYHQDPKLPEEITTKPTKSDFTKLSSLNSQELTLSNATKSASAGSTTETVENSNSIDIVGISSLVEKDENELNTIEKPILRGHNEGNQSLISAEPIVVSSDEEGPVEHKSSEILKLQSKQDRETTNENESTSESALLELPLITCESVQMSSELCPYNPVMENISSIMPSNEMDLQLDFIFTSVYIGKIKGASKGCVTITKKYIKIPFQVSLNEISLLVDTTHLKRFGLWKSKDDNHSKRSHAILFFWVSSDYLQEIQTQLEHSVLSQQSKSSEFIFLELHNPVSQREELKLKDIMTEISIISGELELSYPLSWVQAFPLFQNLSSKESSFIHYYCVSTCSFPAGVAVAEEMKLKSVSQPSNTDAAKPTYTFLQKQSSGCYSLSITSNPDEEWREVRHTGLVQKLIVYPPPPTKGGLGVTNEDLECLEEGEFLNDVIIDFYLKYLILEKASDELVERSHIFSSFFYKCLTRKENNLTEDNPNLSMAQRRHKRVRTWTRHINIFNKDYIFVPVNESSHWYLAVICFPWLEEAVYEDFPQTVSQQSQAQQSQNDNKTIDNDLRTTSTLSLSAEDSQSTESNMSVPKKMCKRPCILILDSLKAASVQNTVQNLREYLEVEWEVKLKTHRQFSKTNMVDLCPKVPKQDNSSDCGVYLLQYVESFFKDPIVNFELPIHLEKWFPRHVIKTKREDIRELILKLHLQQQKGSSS

Sequences of proteins named here, by UniProt entry; tags and fusion partners are left off.
UniProt Q86WV6: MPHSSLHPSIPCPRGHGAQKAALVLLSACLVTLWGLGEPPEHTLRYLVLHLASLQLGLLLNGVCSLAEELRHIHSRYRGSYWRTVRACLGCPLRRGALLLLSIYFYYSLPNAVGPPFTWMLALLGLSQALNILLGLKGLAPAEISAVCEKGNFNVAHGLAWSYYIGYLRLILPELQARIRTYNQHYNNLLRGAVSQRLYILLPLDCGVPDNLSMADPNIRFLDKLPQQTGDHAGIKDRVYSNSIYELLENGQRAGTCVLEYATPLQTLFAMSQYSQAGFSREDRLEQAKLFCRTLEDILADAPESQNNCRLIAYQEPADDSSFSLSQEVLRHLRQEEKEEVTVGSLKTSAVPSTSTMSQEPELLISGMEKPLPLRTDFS

B1: TBK1 (protein, UniProt Q9UHD2 1-729)
chain: MQSTSNHLWLLSDILGQGATANVFRGRHKKTGDLFAIKVFNNISFLRPVDVQMREFEVLKKLNHKNIVKLFAIEEETTTRHKVLIMEFCPCGSLYTVLEEPSNAYGLPESEFLIVLRDVVGGMNHLRENGIVHRDIKPGNIMRVIGEDGQSVYKLTDFGAARELEDDEQFVSLYGTEEYLHPDMYERAVLRKDHQKKYGATVDLWSIGVTFYHAATGSLPFRPFEGPRRNKEVMYKIITGKPSGAISGVQKAENGPIDWSGDMPVSCSLSRGLQVLLTPVLANILEADQEKCWGFDQFFAETSDILHRMVIHVFSLQQMTAHKIYIHSYNTATIFHELVYKQTKIISSNQELIYEGRRLVLEPGRLAQHFPKTTEENPIFVVSREPLNTIGLIYEKISLPKVHPRYDLDGDASMAKAITGVVCYACRIASTLLLYQELMRKGIRWLIELIKDDYNETVHKKTEVVITLDFCIRNIEKTVKVYEKLMKINLEAAELGEISDIHTKLLRLSSSQGTIETSLQDIDSRLSPGGSLADAWAHQEGTHPKDRNVEKLQVLLNCMTEIYYQFKKDKAERRLAYNEEQIHKFDKQKLYYHATKAMTHFTDECVKKYEAFLNKSEEWIRKMLHLRKQLLSLTNQCFDIEEEVSKYQEYTNELQETLPQKMFTASSGIKHTMTPIYPSSNTLVEMTLGMKKLKEEMEGVVKELAENNHILERFGSLTMDGGLRNVDCL
B2: IRF3 (protein, UniProt Q14653 1-427)
chain: MGTPKPRILPWLVSQLDLGQLEGVAWVNKSRTRFRIPWKHGLRQDAQQEDFGIFQAWAEATGAYVPGRDKPDLPTWKRNFRSALNRKEGLRLAEDRSKDPHDPHKIYEFVNSGVGDFSQPDTSPDTNGGGSTSDTQEDILDELLGNMVLAPLPDPGPPSLAVAPEPCPQPLRSPSLDNPTPFPNLGPSENPLKRLLVPGEEWEFEVTAFYRGRQVFQQTISCPEGLRLVGSEVGDRTLPGWPVTLPDPGMSLTDRGVMSYVRHVLSCLGGGLALWRAGQWLWAQRLGHCHTYWAVSEELLPNSGHGPDGEVPKDKEGGVFDLGPFIVDLITFTEGSGRSPRYALWFCVGESWPQDQPWTKRLVMVKVVPTCLRALVEMARVGGASSLENTVDLHISNSHPLSLTSDQYKAYLQDLVEGMDFQGPGES

Target: T1, sentrin/SUMO-specific protease 7 (SENP7), wild type
Experiment: co-IP; HEK293T cells transfected with the indicated plasmids; lysates in RIPA buffer (50 mM Tris-HCl pH 7.4, 150 mM NaCl, 1 mM EDTA, 1% Triton X-100, 0.1% SDS, 0.5% deoxycholate, 20 mM NEM); immunoprecipitated with anti-Flag antibody or Flag-beads (Fig 3F, 3G, 5I, S2D, S2E) or anti-Myc antibody (S2C), immunoblot; Fig 5I with or without co-expressed SUMO

binding	Molecule
no binding	stimulator of interferon genes (STING) (from UniProt Q86WV6 1-379)
no binding	B1
no binding	B2

Source: PMC5271409
